Measured values taken from PubChem BioAssay AID540276 (National Center for Advancing Translational Sciences (NCATS), 2011).
Hit rate of the full screen: of about 300,000 compounds, about 5,400 (1.8%) were called active. Inconclusive means that the source gave no clear call. Such entries were picked first, then a sample of the others. Calls come from the whole dose curve; tested in HEK293 cells. Potencies beside an inconclusive call are fits to weak or partial responses and may not hold up.

Assay: qHTS for inhibitors of binding or entry into cells for Marburg Virus
Details: Marburg virus pseudotyped entry inhibition, cell reporter; activity change, negative = inhibition: at 37.8 µM (top of the series) unless noted
% is set by controls: 0 for no effect and ±100 for the full control effect; potency is the fitted concentration of half-maximal effect.

| Structure (SMILES) | activity change, negative = inhibition | Potency |
| --- | --- | --- |
| CCSc1nnc(NC(=O)C2(C)Cc3ccccc3C(=O)O2)s1 (stereo not drawn) | inactive: 11% |  |
| O=C(N/N=C/c1ccco1)c1cc(-c2ccc(Cl)cc2)n[nH]1 | inactive: 16% [at 46.1 µM] |  |
| O=C(N/N=C/c1c(O)n(Cc2ccccc2)c(=O)[nH]c1=O)c1ccccc1O |  | inconclusive: 35.5 µM [inhibitor, single point] |
| CCN(CC)C(=O)Oc1ccc2cc(Br)ccc2c1 |  | inconclusive: 5.62 µM [activator, single point] |
| O=C(NCCC(=O)N1CCN(S(=O)(=O)c2ccc(Cl)cc2)CC1)Nc1ccccc1 |  | inconclusive: 10 µM [activator, single point] |
| CCCCCCN1C[C@@H](O)[C@H](n2cc(-c3ccc(F)cc3)nn2)C[C@H]1c1ccccc1 |  | inconclusive: 0.0396 µM [inhibitor, full curve, poor fit] |
| Cc1ccccc1CNC(=O)c1ccccc1N(C)S(=O)(=O)c1ccccc1 |  | inconclusive: 0.355 µM [activator, partial curve, poor fit] |
| Cc1cc(C(=O)COC(=O)/C=C/c2cccc(F)c2)c(C)n1C | inactive: 14.9% [at 46.1 µM] |  |
| COc1cc(CNC2CCCC2)c(Br)cc1OCc1ccccc1 |  | inconclusive: 35.5 µM [inhibitor, single point] |
| COc1ccc([N+](=O)[O-])cc1NC(=O)C(C)OC(=O)C1c2ccccc2Oc2ccccc21 (stereo not drawn) |  | inconclusive: 7.94 µM [inhibitor, partial curve, poor fit] |
| Nc1ncnc(Sc2ccc(Cl)cc2)c1[N+](=O)[O-] |  | inconclusive: 1.41 µM [inhibitor, full curve, poor fit] |
| O=C(N/N=C/c1ccc(Sc2ccccn2)o1)c1cc2ccccc2cc1O | inactive: 7.77% |  |
| O=C(Nc1cnc2ccccn2c1=O)c1ccc(Cl)cc1Cl |  | inconclusive: 7.94 µM [inhibitor, partial curve, poor fit] |
| NCC(c1ccccc1)c1c[nH]c2ccccc12 (stereo not drawn) |  | inconclusive: 11.2 µM [inhibitor, partial curve, poor fit] |
| Cc1cc(N/N=C/c2cccc(F)c2)nc(NCc2ccccc2)n1 |  | active: 15.8 µM |
| COc1ccc(CN(C)CC(=O)Nc2ccccc2C(F)(F)F)c(OC)c1 | inactive: 2.16% |  |
| c1ccc(OCCn2cnc3ccccc32)cc1 | inactive: 5.99% |  |
| CC(=O)Nc1ccc(NC(=O)C(C)n2c3ccccc3c3nc(=O)cc(C)n32)cc1 (stereo not drawn) |  | inconclusive: 2 µM [inhibitor, partial curve, poor fit] |
| O=C(CSc1nnc(CNC(=O)c2cccc(C(F)(F)F)c2)o1)NCc1ccco1 |  | inconclusive: 31.6 µM [activator, single point] |
| O=C(c1ccc(F)cc1)N1CCC(c2nc3ccccc3s2)CC1 |  | inconclusive: 5.62 µM [activator, single point] |
| CC(OC(=O)C1CC(=O)N(Cc2ccccc2)C1)C(=O)Nc1cccc(C#N)c1 (stereo not drawn) | inactive: 16.3% |  |
| COc1ccc(OC)c(N2C(=O)CC(Cc3cc(C)cc(C)c3)C2=O)c1 (stereo not drawn) | inactive: -2.31% |  |
| Cc1ccccc1C(=O)c1cccn1CC(=O)NCCCN1CC(C)CC(C)C1 (stereo not drawn) |  | inconclusive: 35.5 µM [inhibitor, single point] |

An excerpt from above in order of formula weight, high to low:

| Structure (SMILES) | activity change, negative = inhibition | Potency |
| --- | --- | --- |
| Cc1ccccc1C(=O)c1cccn1CC(=O)NCCCN1CC(C)CC(C)C1 (stereo not drawn) |  | inconclusive: 35.5 µM [inhibitor, single point] |
| COc1ccc(OC)c(N2C(=O)CC(Cc3cc(C)cc(C)c3)C2=O)c1 (stereo not drawn) | inactive: -2.31% |  |
| NCC(c1ccccc1)c1c[nH]c2ccccc12 (stereo not drawn) |  | inconclusive: 11.2 µM [inhibitor, partial curve, poor fit] |

Following part

| Structure (SMILES) | activity change, negative = inhibition | Potency |
| --- | --- | --- |
| Cc1ccc(CN2CCNC(=O)C2CC(=O)N(C)C2CCCCC2)o1 (stereo not drawn) |  | inconclusive: 8.91 µM [activator, partial curve, poor fit] |
| O=C(NNS(=O)(=O)c1ccc(CCCl)cc1)C(O)(c1ccccc1)c1ccccc1 |  | inconclusive: 6.31 µM [inhibitor, single point] |
| CC(=O)Nc1ccc(NC(=O)/C(Cl)=C/c2ccccc2)cc1 |  | inconclusive: 0.251 µM [activator, full curve, poor fit] |
| O=C(O)CSCC(=O)Nc1ccc(Br)c(C(F)(F)F)c1 | inactive: -11.5% [at 14.2 µM] |  |
| O=C(Nc1ccc(Cl)c(Cl)c1)Nc1ccccc1NS(=O)(=O)c1cccs1 |  | inconclusive: 35.5 µM [activator, single point] |
| CC1CCc2c(sc3ncn4c(SCC(=O)NCc5ccco5)nnc4c23)C1 (stereo not drawn) |  | inconclusive: 25.9 µM [inhibitor, single point] |
| O=C(CSc1cn(CCNC(=O)c2cccc(C(F)(F)F)c2)c2ccccc12)Nc1ccc2c(c1)OCCO2 |  | inconclusive: 25.1 µM [inhibitor, single point] |
| CNCc1cc2ccc(C)cc2[nH]c1=O | inactive: -1.05% |  |
| CCCCC1=NN(C(=O)c2cocc2C)C(O)(C(F)(F)F)C1 (stereo not drawn) | inactive: 1.41% |  |
| COc1ccc(C(=O)Nc2ccc3nc(SCC(=O)N(C)c4ccccc4)sc3c2)cc1 |  | inconclusive: 10 µM [inhibitor, partial curve, poor fit] |
| CC(=O)N1CC(=O)N=C1SCC(=O)Nc1nc(-c2ccccc2)c(-c2ccccc2)s1 | inactive: -33% |  |
| CCCCCn1c(CN2CCN(Cc3ccccc3)CC2)nc2c1c(=O)[nH]c(=O)n2C | inactive: 11.2% |  |
| C=CCn1c(CNC(=O)c2cccs2)n[nH]c1=S |  | inconclusive: 35.5 µM [activator, single point] |
| CCc1ccc(CNCc2cccs2)cc1 | inactive: 6.31% [at 46.1 µM] |  |
| COc1ccc(NC(=O)c2cnn(-c3ccccc3)c2C)c(OC)c1 |  | inconclusive: 5.62 µM [activator, single point] |
| O=C(Nc1ccn(Cc2ccc(Cl)cc2)n1)c1ccc2c(c1)OCO2 | inactive: 16.2% |  |
| O=C(Nc1nc2ccc(F)cc2s1)c1nc(S(=O)(=O)Cc2ccccc2F)ncc1Cl |  | inconclusive: 11.2 µM [inhibitor, partial curve, poor fit] |
| COc1ccc(C(=O)/C=C/c2cn(CN3CCN(C)CC3)c3ccccc23)cc1 |  | inconclusive: 29.1 µM [inhibitor, single point] |
| CC(=O)Nc1cccc(C(=O)Nc2ccccc2N2CCOCC2)c1 |  | inconclusive: 11.6 µM [inhibitor, single point] |
| C#CCSc1nnc(-c2sc(-c3ccccc3)nc2C)n1C |  | inconclusive: 32.6 µM [activator, single point] |
| CN1C(=O)/C(=C/c2ccccc2Cl)Sc2ccc(C(=O)NCc3cccnc3)cc21 |  | inconclusive: 22.4 µM [inhibitor, partial curve, poor fit] |
| O=C(C(=O)N1CCOCC1)c1cn(Cc2ccccc2F)c2ccccc12 |  | inconclusive: 8.91 µM [inhibitor, partial curve, poor fit] |
| C=CCOC(=O)N[C@@H](c1coc2ccccc2c1=O)[C@@H](C)C=CCC(=O)OC | inactive: -3.22% [at 14.2 µM] |  |

| Structure (SMILES) | activity change, negative = inhibition | Potency |
| --- | --- | --- |
| Cc1[nH]c(-c2ccc(F)cc2)cc1C(=O)N1CCN(c2cccc(Cl)c2)CC1 |  | inconclusive: 10 µM [inhibitor, partial curve, poor fit] |
| COc1cccc(S(=O)(=O)NCc2ccc(C(=O)Nc3ccc(Cl)c(Cl)c3)cc2)c1 |  | inconclusive: 2.82 µM [inhibitor, full curve, poor fit] |
| CSc1cccc(NC(=S)N(CCCN2CCCC2)Cc2cccs2)c1 |  | inconclusive: 1.26 µM [inhibitor, single point] |
| COc1ccc(-c2nc3ccc([N+](=O)[O-])cc3o2)cc1 |  | inconclusive: 4.47 µM [activator, partial curve, poor fit] |
| CCN(C(=O)c1ccccc1)c1ccc([N+](=O)[O-])cc1 | inactive: 13.5% |  |
| Cc1cc(NS(=O)(=O)c2ccc(NC(=O)Cc3ccc([N+](=O)[O-])cc3)cc2)nc(C)n1 | inactive: -2.45% |  |
| COc1ccc2cc(CN(CCCN3CCOCC3)Cc3nnnn3C3CCCC3)c(=O)[nH]c2c1 |  | inconclusive: 4.11 µM [inhibitor, full curve, poor fit] |
| CCc1ccc(NC(=O)CSc2nc3ccccc3c(=O)n2CCCC(=O)NCCCN2CCOCC2)cc1 |  | inconclusive: 6.31 µM [inhibitor, full curve, poor fit] |
| COC(=O)c1cc(-c2ccc(OC)cc2)nc2nc(SC)[nH]c(=O)c12 |  | inconclusive: 35.5 µM [inhibitor, single point] |
| CC(C)c1ccc(OCc2ccc(C(=O)N3CCN(c4ccccn4)CC3)cc2)cc1 |  | inconclusive: 35.5 µM [inhibitor, single point] |
| CCC(C)NC(=O)c1cn(C)c(=O)c2cc(OC)c(OC)cc12 (stereo not drawn) | inactive: -0.149% |  |
| C=CCn1c(SCC(=O)Nc2cc3oc4ccccc4c3cc2OC)nnc1-c1cnccn1 |  | inconclusive: 29.1 µM [inhibitor, single point] |
| Cc1cccc(NC(=O)C2CCN(S(=O)(=O)c3ccc4c(c3)OCCCO4)CC2)n1 |  | inconclusive: 6.31 µM [inhibitor, full curve, poor fit] |
| COc1ccccc1C1CC(=O)NC(C)=C1C(=O)OCC(C)C (stereo not drawn) |  | inconclusive: 15.8 µM [inhibitor, single point] |
| COc1cccc(C(=O)NCCS(=O)(=O)N(C)Cc2ccccc2)c1 | inactive: 14.1% |  |
| Cc1ccc(Cl)cc1N1CCN(C(=O)CSc2cc(=O)n(C)c3ccccc23)CC1 |  | inconclusive: 35.5 µM [inhibitor, single point] |
| COc1ccc(-c2noc(-c3ccc(N4CCN(c5ccccc5OC)CC4)c([N+](=O)[O-])c3)n2)cc1 | inactive: -19.2% [at 46.1 µM] |  |
| COc1cccc(Cn2c(C)c(CNC3CCCCC3)c(C(=O)O)c2C)c1 | inactive: 25.3% [at 46.1 µM] |  |
| C/C(N)=C(/C#N)C(=O)CSc1cc(Cl)ccc1Cl | inactive: 2.25% |  |
| CCOc1ccc(N2CC(C(=O)N3CCCC3)CC2=O)cc1 (stereo not drawn) |  | inconclusive: 35.5 µM [activator, single point] |
| CC(=O)N1N=C(c2c(-c3ccccc3)c3cc(C)ccc3[nH]c2=O)CC1c1ccco1 (stereo not drawn) |  | inconclusive: 9.2 µM [inhibitor, partial curve, poor fit] |
| CCOc1ccc(/C(O)=C2\C(=O)C(=O)N(CCN(C)C)C2c2cc(OC)ccc2OC)cc1Cl (stereo not drawn) |  | inconclusive: 1.41 µM [inhibitor, partial curve, poor fit] |

Structures above that contain a cyano group:

| Structure (SMILES) | activity change, negative = inhibition | Potency |
| --- | --- | --- |
| CC(OC(=O)C1CC(=O)N(Cc2ccccc2)C1)C(=O)Nc1cccc(C#N)c1 (stereo not drawn) | inactive: 16.3% |  |
| C/C(N)=C(/C#N)C(=O)CSc1cc(Cl)ccc1Cl | inactive: 2.25% |  |
